The list shows a part of the results. Many values rest on one well or one pass, so single values are uncertain.
System: Geomyces destructans
Test: growth inhibition relative to DMSO control; higher = stronger growth inhibition
Conditions: 10 µM; 15 °C; incubation time 10 days

| SMILES | growth inhibition |
| --- | --- |
| Nc1nc(=O)c2c([nH]1)NCC(CNc1ccc(C(=O)N[C@@H](CCC(=O)O)C(=O)O)cc1)N2C=O (stereo not given in full) | -9.23% |
| COc1ccc2c(c1)[C@@]1(C)CCC(=O)C[C@@H]1CC2 [5alpha-12-METHOXY-4,4-BISNOR-8,11,13-PODOCARPATRIEN-3-ONE] | -3.64% |
| C=CCc1ccccc1OCC(O)CNC(C)C (stereo not given) | -6.89% |
| NC[C@H]1CC[C@H](C(=O)O)CC1 | -16.8% |
| Oc1c(Cl)cc(Cl)cc1Sc1cc(Cl)cc(Cl)c1O | 22.3% |
| CCCCOc1ccc(CC(=O)NO)cc1 | -7.02% |
| CC(=O)OC(C)C[N+](C)(C)C (stereo not given) | -6.54% |
| CCCCC[C@H](CC(=O)NO)C(=O)N[C@H](C(=O)N1CCC[C@H]1CO)C(C)C | -24.6% |
| Cc1ccc(O)c([C@H](CCN(C(C)C)C(C)C)c2ccccc2)c1 | -4.34% |
| O=C(O)c1cc(=O)c2c(OCC(O)COc3cccc4oc(C(=O)O)cc(=O)c34)cccc2o1 | -2.78% |
| CC(C)CCC[C@@H](C)[C@H]1CC[C@H]2[C@@H]3CC=C4C[C@@H](O)CC[C@]4(C)[C@H]3CC[C@]12C | 0.0946% |
| CCCCCC1C(=O)CCC1CC(=O)O (stereo not given) | -2.53% |
| Nc1ccn([C@@H]2O[C@H](CO)[C@@H](O)[C@H]2O)c(=O)n1 | -7.53% |
| CN(C)CCC(c1ccccc1)c1ccccn1 (stereo not given) | -32.2% |
| C=CC(C1=CC(=O)C(OC)=CC1=O)c1ccc(O)cc1 (stereo not given) | 0.617% |
| COc1cc(O)c2c(=O)c(-c3ccc(O)cc3)coc2c1 | -9.03% |
| COC(=O)[C@H](O)[C@H]1C(C)(C)[C@H](OC(C)=O)[C@@H]2CC3=C4CC(=O)O[C@@H](c5ccoc5)[C@]4(C)CC[C@@H]3[C@@]1(C)C2=O | -15.2% |
| O=C(O)c1cc(O)c(O)c(O)c1 | 0.708% |
| CC(C)=CCc1c(O)cc(C)oc1=O | 2.44% |
| CCN(CC)C(=O)N1CCN(C)CC1 | -7.34% |
| NCCCCCN | -3.39% |
| CCN(CCCc1ccccc1)CCCc1ccccc1 | -43.7% |
| CCOC(=O)c1c(C)cc(O)c(C)c1O | 2.75% |
| CC[C@]1(O)C[C@@H]2CN(CCc3c([nH]c4ccccc34)[C@@](C(=O)OC)(c3cc4c(cc3OC)N(C)[C@H]3[C@@](O)(C(=O)OC)[C@H](OC(C)=O)[C@]5(CC)C=CCN6CC[C@]43[C@@H]65)C2)C1 | 3.2% |

| SMILES | growth inhibition |
| --- | --- |
| C[C@H]1CC[C@@H](C(C)(C)O)CC2=C1CC[C@@H]2C | 3.38% |
| Oc1cc(O)c2c(c1)O[C@H](c1cc(O)c(O)c(O)c1)[C@H](O)[C@H]2c1c(O)cc(O)c2c1O[C@H](c1cc(O)c(O)c(O)c1)[C@H](O)[C@H]2c1c(O)cc(O)c2c1O[C@H](c1cc(O)c(O)c(O)c1)[C@H](O)C2 | -5.26% |
| Clc1ccc(COC(Cn2ccnc2)c2ccc(Cl)cc2Cl)cc1 (stereo not given) | 75.2% |
| Clc1ccccc1C(c1ccccc1)(c1ccccc1)n1ccnc1 | -9.69% |
| NC(=O)NO | -1.14% |
| CN1CCC[C@H]1c1cccnc1 | -15.5% |
| CCCC(C(=O)OCCN(CC)CC)(c1ccccc1)c1ccccc1 | -1.74% |
| COc1c(OC)c2occc2c2oc(=O)ccc12 | -5.97% |
| Cn1c(=O)c2c(ncn2CC(O)CO)n(C)c1=O (stereo not given) | -3.72% |
| CCCc1nc(C(C)(C)O)c(C(=O)OCc2oc(=O)oc2C)n1Cc1ccc(-c2ccccc2-c2nnn[nH]2)cc1 | -27.5% |
| CC(=O)OC1CC(OC(C)=O)C2(C)C(CC(OC(C)=O)C3(C)C4=CC(=O)OC(=O)C4(C)CCC32)C1(C)C (stereo not given) | 4.26% |
| Nc1nccs1 | -15.6% |
| C[C@@H]1CC2C3C[C@H](F)C4=CC(=O)C=C[C@]4(C)[C@@]3(F)[C@@H](O)C[C@]2(C)[C@@]1(O)C(=O)COC(=O)C(C)(C)C (stereo not given in full) | 2.38% |
| CNC1(C)C2CCC(C2)C1(C)C (stereo not given) | -10.6% |
| CCCCCCCCCCCCCCCC[N+](C)(C)C | -18.8% |
| OC[C@H]1O[C@@H](O[C@H]2[C@H](O)[C@@H](O)[C@@H](O)O[C@@H]2CO)[C@H](O)[C@@H](O)[C@@H]1O | -8.87% |
| CC1=CCCC(C)=CCC(C)(C)C=CC1 [HUMULENE (alpha)] | -2.67% |
| CC1=C(C(=O)O)N2C(=O)[C@@H](NC(=O)[C@H](N)c3ccc(O)cc3)[C@H]2SC1 | 10.3% |
| COc1cc(C)c2c(=O)cc(-c3ccccc3)oc2c1 | -28.1% |
| Nc1ccc(S(N)(=O)=O)cc1 | -12.5% |
| Nc1ncnc2c1ncn2[C@H]1C[C@H](O)[C@@H](CO)O1 | -14.7% |
| CCOc1nc2cccc(C(=O)OC(C)OC(=O)OC3CCCCC3)c2n1Cc1ccc(-c2ccccc2-c2nn[nH]n2)cc1 (stereo not given) | 3.19% |
| CC(CCc1ccc(O)cc1)NCCc1ccc(O)c(O)c1 (stereo not given) | -10.8% |
| COc1ccc([C@H]2Oc3cc(OC)cc(OC)c3C[C@H]2O)cc1 | 2.75% |

| SMILES | growth inhibition |
| --- | --- |
| CC(=O)O[C@H](CC(=O)[O-])C[N+](C)(C)C | -3.63% |
| COc1ccc2c(c1)OCC(Cc1ccc(OC)c(OC)c1)C2=O (stereo not given) | 3.4% |
| Cc1cc(O)cc(=O)o1 | 1.61% |
| CC(=O)O[C@H]1CC[C@]2(C)[C@H]3CC=C4[C@@H]5CC(C)(C)CC[C@]5(C(=O)O)CC[C@@]4(C)[C@]3(C)CC[C@H]2C1(C)C | -7.12% |
| S=P(N1CC1)(N1CC1)N1CC1 | -18.6% |
| COc1cc(N)c(Cl)cc1C(=O)NC1CCN(Cc2ccccc2)CC1 | -2.21% |
| CC(C)[C@@H]1CC[C@@H](C)C[C@H]1OC(=O)c1ccccc1 | -1.42% |
| CCCOc1ccc2nc(NC(=O)OC)[nH]c2c1 | -13.8% |
| CCCCOc1ccc(OCCCN2CCOCC2)cc1 | -30.5% |
| CC1CCc2cc(F)cc3c(=O)c(C(=O)O)cn1c23 (stereo not given) | -6.72% |
| COc1ccccc1OCCNCC(O)COc1cccc2[nH]c3ccccc3c12 (stereo not given) | -20.1% |
| COc1cc(-c2coc3cc(OCc4ccccc4)c(OC)c(O)c3c2=O)cc(O)c1OC | -8.5% |
| CC(C)[C@H]1CC[C@H](C(=O)N[C@H](Cc2ccccc2)C(=O)O)CC1 | -28% |
| COC(=O)/C(=C1/OC(=O)C(c2ccccc2)=C1O)c1ccccc1 | -2.36% |
| CC1OC1P(=O)(O)O (stereo not given) | -3.47% |
| COc1c(O)cc2c(c1O)[C@@H]1O[C@H](CO)[C@@H](O)[C@H](O)[C@H]1OC2=O | 2.52% |
| CC(=O)Oc1cccc(C(=O)O)c1OC(C)=O | -6.21% |
| COC(=O)[C@@H]1OC(=O)C2OC23[C@@]1(C)CCC1[C@]2(C)C(C[C@@H](O)[C@]13C)C(C)(C)[C@H](OC(C)=O)C[C@@H]2OC(C)=O (stereo not given in full) | -2.85% |
| CC(C)=CCc1c(O)cc2occ(-c3ccc4c(c3)OCO4)c(=O)c2c1O | 12.1% |
| CC(=O)O[C@H]1CC[C@]2(C)[C@H]3C(=O)C=C4[C@@H]5[C@@H](C)[C@H](C)CC[C@]5(C(=O)O)CC[C@@]4(C)[C@]3(C)CC[C@H]2C1(C)C | -3.05% |
| CCn1cc(C(=O)O)c(=O)c2cc(F)c(N3CCNCC3)cc21 | -17.8% |
| NCC1OC(OC2C(N)CC(N)C(OC3OC(CO)C(O)C(N)C3O)C2O)C(N)C(O)C1O (stereo not given) | 1.55% |
| CC(=O)O[C@H]1C[C@@H](OC(C)=O)C(C)(C)C2CC(=O)[C@]3(C)C(CC[C@@]4(C)[C@H](C(=O)O)OC(=O)C5OC543)[C@]21C (stereo not given in full) | -6.49% |
| CCOC(=O)C1=C(C)NC(C)=C(C(=O)OC)C1c1cccc([N+](=O)[O-])c1 (stereo not given) | 60.5% |

Some of the entries above, set out differently.
SMILES	growth inhibition
CC(=O)O[C@H](CC(=O)[O-])C[N+](C)(C)C	-3.63%
COc1ccc2c(c1)OCC(Cc1ccc(OC)c(OC)c1)C2=O (stereo not given)	3.4%

More compounds

| SMILES | growth inhibition |
| --- | --- |
| CC1(C)S[C@@H]2[C@H](N3C(=O)[C@@H](c4ccccc4)NC3(C)C)C(=O)N2[C@H]1C(=O)O | -0.525% |
| O=C(CCCCCCCCCCCCC1CCCC1)Nc1ccc(S(=O)(=O)c2ccc(NC(=O)CCCCCCCCCCCCC3CCCC3)cc2)cc1 | -17.3% |
| NS(=O)(=O)c1cc2c(cc1C(F)(F)F)NC(Cc1ccccc1)NS2(=O)=O (stereo not given) | -4.57% |
| C=C1[C@H]2CC[C@@]3(C)[C@H](c4ccoc4)OC(=O)C[C@]13O[C@H]1C[C@H](O)C(C)(C)[C@H](CC(=O)OC)[C@]12C [3-DEOXY-3beta-HYDROXYANGOLENSIC ACID METHYL ESTER] | -11.5% |
| CC(CN1c2ccccc2Sc2ccccc21)N(C)C (stereo not given) | -16.5% |
| Cc1onc(-c2ccccc2)c1C(=O)N[C@@H]1C(=O)N2[C@@H]1SC(C)(C)[C@@H]2C(=O)O | -14.8% |
| CC(C)=CCc1c2c(c(O)c3c(=O)c(O)c(-c4ccccc4)oc13)C=CC(C)(C)O2 | -6.22% |
| CCCC(CCC)C(=O)O | -4.28% |
| COc1ccc(-c2coc3cc(O)cc(O)c3c2=O)cc1 | -9.1% |
| COc1c2c(cc3occ(-c4ccc5c(c4)OCO5)c(=O)c13)OC(C)(C)C=C2 | 7.71% |
| CC1(C)O[C@H]2[C@H](O)C[C@](O)(C(N)=O)C[C@H]2O1 | -0.236% |
| COC1=CC(=O)C[C@@H](C)[C@]12Oc1c(Cl)c(OC)cc(OC)c1C2=O | -19.7% |
| CC[C@H](/C=C/[C@@H](C)[C@H]1CC[C@H]2[C@@H]3CCC4=CC(=O)CC[C@]4(C)[C@H]3CC[C@]12C)C(C)C | -7.05% |
| COc1cc2c(cc1OC)C(=O)OC2 | -22.3% |
| OCC(O)CN1CCN(c2ccccc2)CC1 (stereo not given) | -3.75% |
| COC1=C(OC)C(=O)C(C/C=C(\C)CC/C=C(\C)CC/C=C(\C)CC/C=C(\C)CC/C=C(\C)CC/C=C(\C)CC/C=C(\C)CC/C=C(\C)CC/C=C(\C)CCC=C(C)C)=C(C)C1=O | -7.45% |
| COc1ccc(CC(=O)c2ccc(O)cc2O)cc1 | 6.63% |
| Cn1c(=O)c2c(ncn2C)n(C)c1=O | 28.8% |
| Cc1c(OCC(F)(F)F)ccnc1C[S+]([O-])c1nc2ccccc2[nH]1 (stereo not given) | -1.38% |
| CC(C)(C)NCC(O)c1ccc(O)c(CO)c1 (stereo not given) | -0.163% |
| C[C@@H]1CC[C@@]2(OC1)O[C@H]1C[C@H]3[C@@H]4CC[C@@H]5CC(=O)CC[C@]5(C)[C@H]4CC[C@]3(C)[C@H]1[C@@H]2C | -2.54% |
| COc1c2ccoc2cc2oc(C)cc(=O)c12 | -7.53% |
| NC(=O)c1ccc[n+]([C@@H]2O[C@H](COP(=O)([O-])OP(=O)(O)OC[C@H]3O[C@@H](n4cnc5c(N)ncnc54)[C@H](O)[C@@H]3O)[C@@H](O)[C@H]2O)c1 | -6.7% |

At a glance, part of the list above:

| SMILES | growth inhibition |
| --- | --- |
| COc1ccc(CC(=O)c2ccc(O)cc2O)cc1 | 6.63% |
| Cn1c(=O)c2c(ncn2C)n(C)c1=O | 28.8% |
| Cc1c(OCC(F)(F)F)ccnc1C[S+]([O-])c1nc2ccccc2[nH]1 (stereo not given) | -1.38% |

Source: the supplement of paper PMC3047530
